{"source": "patent EP0927045B1", "about": "“TUMOR HOMING MOLECULES, […] THEREFROM, AND METHODS OF USING SAME” (The Burnham Institute, priority 1996, dated 1998)", "system": "B16B15b mouse melanoma", "test": "In vivo panning of phage libraries against a melanoma tumor", "set-up": "species or system nude mice", "details": "89 cloned phage recovered from the B16B15b tumors, three rounds of panning"}
{"substance": "WGTGLC", "values": [{"measurement": "share of the clones sequenced", "value": 25, "unit": "%"}]}
